Results from patent US20180371053A1 (UNIVERSITY OF NORTH CAROLINA AT CHAPEL HILL, published 2018).
Results are given in words; binding and its absence hold for the method and conditions named. Some binding calls cover weakened binding; strength is not graded here.

Tests used:
[1] = target: T1, human B7-H3 (CD276) naturally expressed on pancreatic cancer (PDAC) cells and tissues (human) (UniProt Q5ZPR3); test: flow cytometry of PDAC cell lines stained with mAb 376.96
T1 sequence (looked up): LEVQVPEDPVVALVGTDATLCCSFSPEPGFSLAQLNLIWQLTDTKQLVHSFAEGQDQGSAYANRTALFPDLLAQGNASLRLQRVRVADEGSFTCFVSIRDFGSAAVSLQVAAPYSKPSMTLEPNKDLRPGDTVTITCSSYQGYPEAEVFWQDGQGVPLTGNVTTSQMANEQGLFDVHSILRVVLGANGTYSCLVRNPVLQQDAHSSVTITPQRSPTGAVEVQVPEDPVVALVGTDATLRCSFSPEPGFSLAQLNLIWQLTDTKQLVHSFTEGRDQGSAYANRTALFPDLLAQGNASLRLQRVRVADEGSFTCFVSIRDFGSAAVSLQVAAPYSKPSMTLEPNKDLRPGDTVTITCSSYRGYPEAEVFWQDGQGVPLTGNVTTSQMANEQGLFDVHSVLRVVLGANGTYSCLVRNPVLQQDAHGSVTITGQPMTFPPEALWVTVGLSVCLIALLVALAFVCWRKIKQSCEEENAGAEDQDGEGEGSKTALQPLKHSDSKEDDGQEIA

[2] = target: T1, human B7-H3 (CD276) naturally expressed on pancreatic cancer (PDAC) cells and tissues (human); test: immunohistochemistry of frozen PDAC tissue with mAb 376.96 at 1 µg/mL
human 2Ig-B7-H3 (human) = target: T2, human 2Ig-B7-H3 (human) (UniProt Q5ZPR3); test: flow cytometry on Raji clones expressing 2Ig-hB7-H3
T2 sequence (looked up): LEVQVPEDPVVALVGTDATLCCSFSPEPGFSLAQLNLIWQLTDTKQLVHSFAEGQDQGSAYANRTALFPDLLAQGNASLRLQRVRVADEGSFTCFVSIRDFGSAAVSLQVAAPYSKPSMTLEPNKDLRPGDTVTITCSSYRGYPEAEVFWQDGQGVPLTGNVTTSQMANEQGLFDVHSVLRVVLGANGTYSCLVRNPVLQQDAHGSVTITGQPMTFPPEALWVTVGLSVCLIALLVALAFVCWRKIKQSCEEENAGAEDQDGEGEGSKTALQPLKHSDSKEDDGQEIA

Measured: binding

B1: anti-B7-H3 mAb 376.96 (antibody, V domains shown)
VH: EVQLVESGGGLVKPGGSLKLSCEASRFTFSSYAMSWVRQTPEKRLEWVAAISGGGRYTYYPDSMKGRFTISRDNAKNFLYLQMSSLRSEDTAMYYCARHYDGYLDYWGQGTTLTVSS
VL: DIVMTQSHKFMSTSIGARVSITCKASQDVRTAVAWYQQKPGQSPKLLIYSASYRYTGVPDRFTGSGSGTDFTFTISSVQAEDLAVYYCQQHYGTPPWTFGGGTKLEIK
notes: The residue ranges are my derivation
binds: [1] | [2] | human 2Ig-B7-H3 (human)
